Reference: article PMC3182250

B1: GST-Kv7.2-CaMBD fusion protein, wild type (Kv7.2 CaM-binding site G310-L548) [human] / dansyl-calmodulin [modified: dansyl label (sites not stated); dansyl label (sites not stated)] [rat] (parent)
chain 1: not shown
chain 2: GILGSGFALKVQEQHRQKHFEKRRNPAAGLIQSAWRFYATNLSRTDLHSTWQYYERTVTVPMYRLIPPLNQLELLRNLKSKSGLAFRKDPPPEPSPSQKVSLKDRVFSSPRGVAAKGKGSPQAQTVRRSPSADQSLEDSPSKVPKSWSFGDRSRARQAFRIKGAASRQNSEEASLPGEDIVDDKSCPCEFVTEDLTPGLKVSIRAVCVMRFLVSKRKFKESLRPYDVMDVIEQYSAGHL

Variants of: B1
Assay: dansyl-calmodulin (D-CaM) fluorescence emission
Details: with dansyl-calmodulin [modified: dansyl label (sites not given), 12.5 nM D-CaM, 200 nM GST-Kv7.2-CaMBD fusion protein, read off a plot
[1] = -Ca2+ (10 mM EGTA and no added Ca2+)

Row | Variant | response (+Ca2+ (2.0 µM free Ca2+)) [%] | response [1] [%]
1 | chain 2 I31E | 2 | 2
2 | chain 2 S202D | 3 | 2
